PubChem BioAssay AID652243 | Drosophila RNAi Screening Center – 2013
The screen tested about 24,000 reagents; this is a random part of those that have a named target and a result. Over the whole deposit, 246 (1%) were called active. 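Plates not normalised; calls are printed but the firefly/Renilla ratio behind them is not deposited; fold cut for lowering reported inconsistently.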 Raw values vary from plate to plate and are shown uncorrected. A number with no mark means an inactive call. The numbers tell different reagents against one gene apart. A plus sign joins genes that one reagent is predicted to hit. Not given: the amount of reagent.

- Purpose: 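Fly regulators of androgen-dependent reporter output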 (primary screen)
- Cell system: Drosophila S2R+ cells
- Reagent: long dsRNA against Drosophila genes
- Timing: 72 h (48 h, then 24 h hormone)
- Challenge: synthetic androgen R1881 at 10 nM for 24 h
- Detection: 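Firefly light from an androgen-responsive reporter and Renilla control light per well, raw and unnormalised, for each of two replicates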
- Scale: firefly reporter light: higher = more light from androgen-responsive reporter; Renilla control light: higher = more constitutive control signal (cell number, transfection)
- Call rule: 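Across duplicate plates, a knock-down whose log firefly/Renilla ratio shifted a set fold down or up from the GFP/LacZ control mean was a hit; the downward cut appears as both 1.5 and 3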
- Meaning of the calls: active = hit: reporter lowered or raised; inactive = no hit

slmo + CG34179 — firefly reporter light, replicate 1: 3.07e5; firefly reporter light, replicate 2: 5.58e5; Renilla control light, replicate 1: 1.20e6; Renilla control light, replicate 2: 1.37e6
Pka-C3 #1 — firefly reporter light, replicate 1: 2.46e5; firefly reporter light, replicate 2: 2.17e5; Renilla control light, replicate 1: 4.31e5; Renilla control light, replicate 2: 4.01e5
Pka-C3 #2 — firefly reporter light, replicate 1: 60653; firefly reporter light, replicate 2: 33890; Renilla control light, replicate 1: 8.84e5; Renilla control light, replicate 2: 5.44e5
Pka-C3 #3 — firefly reporter light, replicate 1: 4.47e5; firefly reporter light, replicate 2: 3.25e5; Renilla control light, replicate 1: 5.48e5; Renilla control light, replicate 2: 4.63e5
Dtd — firefly reporter light, replicate 1: 1.04e5; firefly reporter light, replicate 2: 1.56e5; Renilla control light, replicate 1: 1.56e6; Renilla control light, replicate 2: 2.31e6
CG32195 — firefly reporter light, replicate 1: 2.07e5; firefly reporter light, replicate 2: 1.65e5; Renilla control light, replicate 1: 3.77e5; Renilla control light, replicate 2: 3.16e5
BEAF-32 — firefly reporter light, replicate 1: 9.55e5; firefly reporter light, replicate 2: 5.07e5; Renilla control light, replicate 1: 2.02e6; Renilla control light, replicate 2: 1.22e6
CG6665 — firefly reporter light, replicate 1: 4.11e5; firefly reporter light, replicate 2: 4.64e5; Renilla control light, replicate 1: 3.98e5; Renilla control light, replicate 2: 3.65e5
CG2162 #1 — firefly reporter light, replicate 1: 7.03e5; firefly reporter light, replicate 2: 9.12e5; Renilla control light, replicate 1: 1.23e6; Renilla control light, replicate 2: 9.81e5
CG2162 #2 — firefly reporter light, replicate 1: 7.64e5; firefly reporter light, replicate 2: 7.55e5; Renilla control light, replicate 1: 8.90e5; Renilla control light, replicate 2: 8.86e5
CG13138 — firefly reporter light, replicate 1: 2.22e5; firefly reporter light, replicate 2: 1.74e5; Renilla control light, replicate 1: 1.37e6; Renilla control light, replicate 2: 9.92e5
XNP #1 — firefly reporter light, replicate 1: 72358; firefly reporter light, replicate 2: 93637; Renilla control light, replicate 1: 4.49e5; Renilla control light, replicate 2: 4.98e5
XNP #2 — firefly reporter light, replicate 1: 3.71e5; firefly reporter light, replicate 2: 3.61e5; Renilla control light, replicate 1: 4.19e5; Renilla control light, replicate 2: 5.57e5
H15 #1 — firefly reporter light, replicate 1: 1.13e5; firefly reporter light, replicate 2: 1.13e5; Renilla control light, replicate 1: 9.88e5; Renilla control light, replicate 2: 9.38e5
H15 #2 — firefly reporter light, replicate 1: 6.23e5; firefly reporter light, replicate 2: 5.44e5; Renilla control light, replicate 1: 2.43e6; Renilla control light, replicate 2: 1.99e6
H15 #3 — firefly reporter light, replicate 1: 5.31e5; firefly reporter light, replicate 2: 7.58e5; Renilla control light, replicate 1: 6.66e5; Renilla control light, replicate 2: 5.75e5
NimC1 — firefly reporter light, replicate 1: 1.21e5; firefly reporter light, replicate 2: 1.61e5; Renilla control light, replicate 1: 1.07e6; Renilla control light, replicate 2: 1.27e6
Scsalpha2 — firefly reporter light, replicate 1: 1.15e5; firefly reporter light, replicate 2: 86209; Renilla control light, replicate 1: 8.53e5; Renilla control light, replicate 2: 7.85e5
CG14787 — firefly reporter light, replicate 1: 1.90e5; firefly reporter light, replicate 2: 2.63e5; Renilla control light, replicate 1: 4.10e6; Renilla control light, replicate 2: 3.08e6
Hou #1 — firefly reporter light, replicate 1: 1.31e5; firefly reporter light, replicate 2: 96741; Renilla control light, replicate 1: 1.01e6; Renilla control light, replicate 2: 1.18e6
Hou #2 — firefly reporter light, replicate 1: 6.67e5; firefly reporter light, replicate 2: 6.51e5; Renilla control light, replicate 1: 2.89e6; Renilla control light, replicate 2: 2.96e6
Hou #3 — firefly reporter light, replicate 1: 3.66e5; firefly reporter light, replicate 2: 3.76e5; Renilla control light, replicate 1: 6.86e5; Renilla control light, replicate 2: 6.07e5
